Data as given in PubChem BioAssay AID686937 (Drosophila RNAi Screening Center, 2013).

- Purpose: 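Genes whose loss weakens secretory pathway function in fly cells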 (primary screen)
- Cell system: Drosophila S2 cells expressing secreted horseradish peroxidase
- Reagents: long dsRNA against Drosophila genes
- Time to read-out: about 5.5 days (5 days dsRNA, then 12 h reporter induction)
- Treatment: reporter expression induced after 5 days of dsRNA, read 12 h later; inducer not stated
- Measurement: 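After 5 days of dsRNA and 12 h of reporter induction, medium peroxidase read by chemiluminescence and scored as per-plate z-score; higher values mean more reporter released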
- Reading the numbers: z-score: higher = more reporter secreted into medium
In all, the deposit lists about 23,000 reagents; below is a random part of those with a known target gene and a result. 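Reduced-secretion tags in replicate 1 do not always agree with the z-scores; no criterion for assigning the tags was given.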 A plus sign joins genes that one reagent is predicted to hit. Not all columns of the deposit are shown. The record does not give: the amount of reagent.

z-score, replicate 1, by gene knocked down and reagent
CG9132 (GeneID 2768881): DRSC20159 0.32
Or30a (GeneID 34236): DRSC03385 0.37
CG4119 (GeneID 31481): DRSC17741 0.48
CG14694 (GeneID 41307): DRSC14917 0.12
Eo (GeneID 32423): DRSC20187 0.27
CG7203 (GeneID 34055): DRSC03026 0.26
clu (GeneID 36793): DRSC07181 0.26
Tfb4 (GeneID 33294): DRSC00675 -1.73
CG12828 (GeneID 5740660): DRSC06177 0.19
Shc (GeneID 44052): DRSC11284 -1.33
SP1029 (GeneID 53473): DRSC16848 0.22
croc (GeneID 40374): DRSC11884 0.26
prd1 (GeneID 41425): DRSC15227 0.4
Chs2 (GeneID 40442): DRSC11830 0.01
CREG (GeneID 42092): DRSC16595 0.42
Or83c (GeneID 40744): DRSC12359 -0.05
Ucp4A (GeneID 32764): DRSC19996 0.26
CG32687 (GeneID 31980): DRSC18210 0.15; DRSC18237 0.2
Pis (GeneID 32506): DRSC20178 0.1
CG15152 (GeneID 35082): DRSC02453 0.35
TTLL15 (GeneID 41300): DRSC15543 0
l(2)05714 (GeneID 46066): DRSC03118 -0.31
RIC-3 (GeneID 37384): DRSC04243 0.23; DRSC04543 0.05
Gbeta5 (GeneID 31744): DRSC17754 0.36
siz (GeneID 40327): DRSC11622 0.23; DRSC11689 0.33; DRSC11690 0.41
mago (GeneID 37402): DRSC04703 0.23
CG14269 (GeneID 31312): DRSC17912 0.11
scu (GeneID 32789): DRSC20369 0.09
Prosalpha4 (GeneID 32584): DRSC20271 0.21
CG4467 (GeneID 42747): DRSC15585 0.4
CG14227 (GeneID 32978): DRSC19584 -1.23
CG8141 (GeneID 41622): DRSC16387 -0.06
CG16952 (GeneID 32546): DRSC19759 0.26
Tnpo-SR (GeneID 33465): DRSC00546 -0.27
CG7091 (GeneID 41590): DRSC12944 0.63; DRSC16197 0.36
boss (GeneID 43146): DRSC16916 0.27
Damm (GeneID 36266): DRSC07393 0.08
Sur-8 (GeneID 42093): DRSC15794 0.47
CG10918 (GeneID 33123): DRSC20472 0.35
Rpn9 (GeneID 42802): DRSC16840 0.05
lambdaTry (GeneID 36214): DRSC06137 0.46
eIF6 (GeneID 37776): DRSC04674 0.16
Ttc30 (GeneID 34702): DRSC02818 -9.76
CG30001 (GeneID 246383): DRSC05191 0.16
CG15731 (GeneID 32194): DRSC19698 0.1; DRSC21820 0.18
Axn (GeneID 43565): DRSC14120 0.3
Jon99Ciii (GeneID 43543): DRSC16859 -2.75
CG10516 (GeneID 39738): DRSC09738 0.5
Obp50b + Obp50c: DRSC21818 -0.26
RpS11 (GeneID 36321): DRSC07289 0.45; DRSC22700 -2.75
CG14440 (GeneID 31610): DRSC17933 -0.61
CG32095 (GeneID 317849): DRSC22615 -0.08
Bili (GeneID 43019): DRSC14405 0.09
sowi (GeneID 40809): DRSC12558 0.14
CG14315 (GeneID 42164): DRSC14794 0.39
mRpL9 (GeneID 41859): DRSC15678 0.34
CG16853 (GeneID 34771): DRSC01877 0.08
CG17612 (GeneID 33639): DRSC00505 0.18

11 entries from above, sorted by “z-score, replicate 1”, descending.
gene knocked down	amplicon	z-score, replicate 1
siz (GeneID 40327)	DRSC11690	0.41
Gbeta5 (GeneID 31744)	DRSC17754	0.36
CG15152 (GeneID 35082)	DRSC02453	0.35
siz (GeneID 40327)	DRSC11689	0.33
RIC-3 (GeneID 37384)	DRSC04243	0.23
siz (GeneID 40327)	DRSC11622	0.23
mago (GeneID 37402)	DRSC04703	0.23
CG14269 (GeneID 31312)	DRSC17912	0.11
RIC-3 (GeneID 37384)	DRSC04543	0.05
TTLL15 (GeneID 41300)	DRSC15543	0
l(2)05714 (GeneID 46066)	DRSC03118	-0.31

Continued.
z-score, replicate 1, by gene knocked down and reagent
lncRNA:CR31386 (GeneID 12797885): DRSC22769 1.66
CG12860 (GeneID 36629): DRSC06200 0.13
Ir48a (GeneID 3772197): DRSC05301 0.52
CG3168 (GeneID 31612): DRSC18287 -0.94
ADD1 (GeneID 36278): DRSC07135 0.18
CG42372 + CG30100: DRSC05602 0.57
RpL21 (GeneID 35453): DRSC03704 -3.17
CG32079 (GeneID 39230): DRSC22636 -0.04
Ak6 (GeneID 36379): DRSC07274 0.42
Spt5 (GeneID 53442): DRSC07556 -2.34
ome (GeneID 44297): DRSC09322 -0.07; DRSC10282 -0.23; DRSC11380 0.17
ben (GeneID 32358): DRSC20310 0.23; DRSC21261 0.58
trn (GeneID 39491): DRSC11407 0.42
CG3792 (GeneID 33717): DRSC02725 0.23
CG6329 (GeneID 36529): DRSC06976 0.36
Drep4 (GeneID 34734): DRSC03408 0.6
CG31798 (GeneID 318946): DRSC01702 0.39
CG6638 (GeneID 38979): DRSC10680 0.42
Scox (GeneID 33711): DRSC03117 -0.63
CG32647 (GeneID 326226): DRSC19690 0.27; DRSC19878 0.1
CG13615 (GeneID 42916): DRSC14618 0.22
tamo (GeneID 37864): DRSC04446 0.29
Mical (GeneID 41225): DRSC14349 0.2; DRSC14351 0.56; DRSC15365 0.42; DRSC15366 0.52
ltl (GeneID 38845): DRSC10206 0.18; DRSC10870 0.21
Rab9Fb (GeneID 32029): DRSC19854 0.34
St4 (GeneID 36548): DRSC07008 0.41
asRNA:CR31514 + CG12947: DRSC14575 0.17
CG11997 (GeneID 41093): DRSC14464 0.25
EndoU (GeneID 41931): DRSC15472 0.47
Nrt (GeneID 39873): DRSC11237 0.43
CG3081 (GeneID 31395): DRSC18571 0.41
